Results taken from patent US9023795B2 (Shanghai First People's Hospital, priority 2010, dated 2015).
End groups of sequences in plain letters are not given here.

experiment: general procedure: Fmoc solid-phase peptide synthesis; 2-Chlorotrityl Chloride Resin; details: whole synthesis

Row | Sequence | final HPLC purity [%]
1 | CVSLLRCTGCC GDENLHCVPV (CVSLLRCTGCCGDENLHCVPV; angiogenesis-inhibiting peptide ZY1) | 98.85
2 | VSLLRCTGCCGDENLHCVPV | 98.01
3 | CASLLRCTGCCGDENLHCAPA | 97.31
4 | CVSLLRCTGCCGDENLHC | 98.63
